These are yes or no findings as the source states them, for the method shown. Binding seen in cells or lysates may run through a third protein. Some entries that bind do so weakly or less than the wild type. Tags and fused reporters may be left off the sequences shown.
Experiments:
[1] = target: T1, E-tagged murine TRAF2 (pEF6-E-mTRAF2) (murine) (UniProt P39429); assay: co-immunoprecipitation with anti-Flag from HEK293T lysates, anti-E-tag Western blot
T1 sequence (looked up): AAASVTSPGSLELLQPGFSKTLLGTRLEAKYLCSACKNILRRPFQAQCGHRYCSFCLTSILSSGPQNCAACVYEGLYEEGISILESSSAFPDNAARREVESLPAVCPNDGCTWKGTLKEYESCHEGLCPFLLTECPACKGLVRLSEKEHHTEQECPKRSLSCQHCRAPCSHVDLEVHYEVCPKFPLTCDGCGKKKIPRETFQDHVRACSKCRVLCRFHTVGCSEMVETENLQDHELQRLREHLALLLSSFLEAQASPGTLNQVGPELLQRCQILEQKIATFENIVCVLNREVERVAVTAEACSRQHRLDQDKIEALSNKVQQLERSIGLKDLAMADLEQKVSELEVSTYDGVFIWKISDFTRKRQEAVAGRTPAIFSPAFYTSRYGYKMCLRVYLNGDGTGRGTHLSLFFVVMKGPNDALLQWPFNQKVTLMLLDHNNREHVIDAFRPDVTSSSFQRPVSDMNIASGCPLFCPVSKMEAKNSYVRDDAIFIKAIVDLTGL

Protein sequences, listed by entry. Tags and fused reporters are not part of them. Lines headed by an entry give the natural chain unless they say otherwise; changes in a name come on top. Chains listed by the source or under a name are the forms on record and can include a tag or linker.
UniProt Q9HAU4: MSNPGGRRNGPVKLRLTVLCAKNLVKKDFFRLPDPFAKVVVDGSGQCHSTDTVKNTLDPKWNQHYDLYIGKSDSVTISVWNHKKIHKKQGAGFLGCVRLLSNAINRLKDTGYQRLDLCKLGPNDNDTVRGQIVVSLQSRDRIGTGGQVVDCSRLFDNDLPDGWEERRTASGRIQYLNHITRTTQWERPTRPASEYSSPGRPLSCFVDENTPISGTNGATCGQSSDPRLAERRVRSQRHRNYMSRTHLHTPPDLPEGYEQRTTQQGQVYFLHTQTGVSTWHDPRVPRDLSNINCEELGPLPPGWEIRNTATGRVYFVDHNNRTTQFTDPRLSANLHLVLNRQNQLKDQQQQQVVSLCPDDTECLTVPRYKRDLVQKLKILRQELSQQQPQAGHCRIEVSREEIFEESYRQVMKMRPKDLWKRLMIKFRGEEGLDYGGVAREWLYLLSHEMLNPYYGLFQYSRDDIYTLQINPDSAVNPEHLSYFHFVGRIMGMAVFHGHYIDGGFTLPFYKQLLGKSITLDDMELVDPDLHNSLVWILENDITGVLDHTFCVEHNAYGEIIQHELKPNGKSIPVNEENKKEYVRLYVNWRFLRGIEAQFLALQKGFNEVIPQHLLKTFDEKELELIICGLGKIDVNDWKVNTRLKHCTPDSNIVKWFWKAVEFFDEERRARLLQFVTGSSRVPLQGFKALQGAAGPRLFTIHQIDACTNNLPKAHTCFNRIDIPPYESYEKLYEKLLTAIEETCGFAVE
Flag-tagged Smurf2 deletion mutant lacking the first WW domain (Q9HAU4, form named): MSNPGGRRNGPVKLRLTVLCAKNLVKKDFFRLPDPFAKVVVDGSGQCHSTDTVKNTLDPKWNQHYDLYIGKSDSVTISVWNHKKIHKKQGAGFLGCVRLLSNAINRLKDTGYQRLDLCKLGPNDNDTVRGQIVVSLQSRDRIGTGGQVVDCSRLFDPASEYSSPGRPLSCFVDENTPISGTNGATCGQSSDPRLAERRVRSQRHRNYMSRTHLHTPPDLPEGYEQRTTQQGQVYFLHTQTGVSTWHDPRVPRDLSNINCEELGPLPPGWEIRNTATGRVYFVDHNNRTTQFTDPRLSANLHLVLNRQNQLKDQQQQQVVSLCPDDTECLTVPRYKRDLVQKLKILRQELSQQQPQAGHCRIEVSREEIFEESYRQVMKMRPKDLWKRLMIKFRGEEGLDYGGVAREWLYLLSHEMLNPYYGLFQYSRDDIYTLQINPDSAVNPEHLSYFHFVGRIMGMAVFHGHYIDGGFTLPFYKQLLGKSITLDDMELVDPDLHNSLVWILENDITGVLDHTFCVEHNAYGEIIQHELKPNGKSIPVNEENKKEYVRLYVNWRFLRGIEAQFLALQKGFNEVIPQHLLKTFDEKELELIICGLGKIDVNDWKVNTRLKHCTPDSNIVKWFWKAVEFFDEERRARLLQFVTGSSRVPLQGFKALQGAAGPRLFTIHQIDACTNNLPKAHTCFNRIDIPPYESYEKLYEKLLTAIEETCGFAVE

[2] = target: T1, E-tagged murine TRAF2 (pEF6-E-mTRAF2) (murine); assay: co-immunoprecipitation with anti-HA from HEK293T lysates, anti-E-tag Western blot
[3] = target: T1, E-tagged murine TRAF2 (pEF6-E-mTRAF2) (murine); assay: co-immunoprecipitation with anti-HA from HEK293T lysates, anti-E-tag Western blot (FIG. 1, Panel B)
[4] = target: T1, E-tagged murine TRAF2 (pEF6-E-mTRAF2) (murine); assay: co-immunoprecipitation of TNF-R2 with utr-1 from HEK293T lysates with 0, 0.25, 1 or 2 µg E-TRAF2 plasmid; anti-cMyc and anti-E Western blots
[5] = target: T1, E-tagged murine TRAF2 (pEF6-E-mTRAF2) (murine); assay: co-immunoprecipitation from HEK293T lysates

**Q.** With “Flag-tagged Smurf2 deletion mutant lacking the first WW domain (from UniProt Q9HAU4 1-748) (enzyme)” as the substance, how does the binding [1] read?
**A.** The binding was “binds”.

**Q.** “HA-tagged Smurf2 (full length, wild type) (from UniProt Q9HAU4 1-748) (enzyme)” was tested. Which binding [2] did it give?
**A.** Its binding is “binds”.

**Q.** And the binding [3]?
**A.** Its binding is “binds”.

**Q.** What does the source list for “cMyc-tagged Smurf2 (C716G), ligase inactive point mutant (from UniProt Q9HAU4 1-748) (enzyme)”?
**A.** binding [4]: binds; binding [5]: binds

Source: US20060134737A1 (VLAAMS INTERUNIVERSITAIR INSTITUUT VOOR BIOTECHNOLOGIE VZW, published 2006)
